# Test results as given in paper PMC10458444 (Viruses, 2023).
# Counter-ions that a name gives are not always drawn.
# What was measured:
# Experiment in all cases: microbe, parasite or virus in culture
# Format in all cases: cell-based
# MERS-CoV PsV = details: Middle East respiratory syndrome-related coronavirus, 48 h, read-out: IC50, inhibition of MERS-CoV PsV infection
# SARS-CoV PsV = details: Severe acute respiratory syndrome coronavirus, 48 h, read-out: IC50, inhibition of SARS-CoV PsV infection
# SARS-CoV-2 (D614) PsV = details: Severe acute respiratory syndrome coronavirus 2, 48 h, read-out: IC50, inhibition of SARS-CoV-2 (D614) PsV infection
smiles,measurement,setting,value
"CN1CCN(CCCN2c3ccccc3Sc3ccc(Cl)cc32)CC1 [Prochlorperazine maleate, prochlorperazine maleate]",IC50,MERS-CoV PsV,855 nM
same,IC50,SARS-CoV PsV,773 nM
same,IC50,SARS-CoV-2 (D614) PsV,259 ± 48 nM
